Some of the results follow.
Assays:
Experiment in all cases: log2 fold change, soluble protein after heating vs DMSO (PISA); higher = thermal stabilisation; K562 cells, 10 uM, 30 min; active = over 0.2 and 3.5 SD of the protein, either way, in both replicates (recomputed)
[1] = compound: COC1=CC=C(C=C1)CN2C=CC3=C2C=C(C=C3)C(=O)NO
In short: (§1)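 K562 cells at 2×10^6 cells/mL were treated for 30 min with 10 μM compound, and aliquots were heated for 3 min over 48°C-58°C before pooling. Extraction used PBS with 0.5% NP-40 at 4°C, and soluble protein was the supernatant after 21,000xg for 90 min, measured by TMTpro 16plex LC-MS/MS with channel sums equalised. Thermal stability values, relative to control samples and from duplicates, are log2 fold changes.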

By UniProt entry, the sequences of proteins in these tests, tags left out. Where a name states a change or a piece, a line headed by the entry shows the natural chain unless it says otherwise.
UniProt Q99729: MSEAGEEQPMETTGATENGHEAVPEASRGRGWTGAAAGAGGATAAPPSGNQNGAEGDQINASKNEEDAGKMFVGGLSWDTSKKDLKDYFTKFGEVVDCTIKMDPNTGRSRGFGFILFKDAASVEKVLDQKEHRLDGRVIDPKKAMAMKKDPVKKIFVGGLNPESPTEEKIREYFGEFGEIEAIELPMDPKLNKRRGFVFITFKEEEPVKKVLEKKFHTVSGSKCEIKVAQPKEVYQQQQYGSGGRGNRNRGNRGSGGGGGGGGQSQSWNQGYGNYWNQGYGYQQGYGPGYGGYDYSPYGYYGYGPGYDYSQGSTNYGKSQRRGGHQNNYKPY
UniProt P50747: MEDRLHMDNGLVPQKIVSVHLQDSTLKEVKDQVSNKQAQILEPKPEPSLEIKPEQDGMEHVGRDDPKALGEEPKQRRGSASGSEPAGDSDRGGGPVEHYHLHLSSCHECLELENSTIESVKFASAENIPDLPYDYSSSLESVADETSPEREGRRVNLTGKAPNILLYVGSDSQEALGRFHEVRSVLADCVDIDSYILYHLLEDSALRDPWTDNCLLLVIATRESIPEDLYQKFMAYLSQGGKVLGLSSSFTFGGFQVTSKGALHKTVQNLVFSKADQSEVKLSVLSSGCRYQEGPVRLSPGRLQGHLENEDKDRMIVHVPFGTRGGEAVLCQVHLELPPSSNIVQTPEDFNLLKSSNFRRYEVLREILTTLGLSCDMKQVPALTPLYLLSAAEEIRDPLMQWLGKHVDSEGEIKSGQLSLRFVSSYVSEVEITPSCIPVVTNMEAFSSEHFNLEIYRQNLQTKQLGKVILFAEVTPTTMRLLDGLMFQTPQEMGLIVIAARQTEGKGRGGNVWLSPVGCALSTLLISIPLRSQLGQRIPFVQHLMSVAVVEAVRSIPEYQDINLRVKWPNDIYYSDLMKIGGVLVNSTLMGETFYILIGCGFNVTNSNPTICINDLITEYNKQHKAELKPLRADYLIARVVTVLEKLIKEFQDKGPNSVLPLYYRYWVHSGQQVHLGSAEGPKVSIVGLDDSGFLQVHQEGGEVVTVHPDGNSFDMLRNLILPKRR
UniProt Q6YN16: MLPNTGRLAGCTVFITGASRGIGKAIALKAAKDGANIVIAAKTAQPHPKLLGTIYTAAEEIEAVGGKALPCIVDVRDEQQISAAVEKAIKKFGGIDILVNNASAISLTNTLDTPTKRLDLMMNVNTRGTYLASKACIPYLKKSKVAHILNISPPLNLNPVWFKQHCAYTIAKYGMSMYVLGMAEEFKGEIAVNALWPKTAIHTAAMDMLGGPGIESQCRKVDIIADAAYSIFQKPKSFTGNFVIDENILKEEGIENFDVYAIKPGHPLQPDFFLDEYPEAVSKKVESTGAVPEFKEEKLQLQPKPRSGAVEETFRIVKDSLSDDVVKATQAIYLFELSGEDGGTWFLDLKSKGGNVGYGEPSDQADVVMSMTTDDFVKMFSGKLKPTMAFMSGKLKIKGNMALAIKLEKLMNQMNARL
UniProt P17096: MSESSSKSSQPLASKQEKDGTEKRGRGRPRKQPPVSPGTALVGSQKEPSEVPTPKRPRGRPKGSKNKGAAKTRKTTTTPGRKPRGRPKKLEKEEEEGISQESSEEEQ
UniProt Q00839, whole entry, looked up: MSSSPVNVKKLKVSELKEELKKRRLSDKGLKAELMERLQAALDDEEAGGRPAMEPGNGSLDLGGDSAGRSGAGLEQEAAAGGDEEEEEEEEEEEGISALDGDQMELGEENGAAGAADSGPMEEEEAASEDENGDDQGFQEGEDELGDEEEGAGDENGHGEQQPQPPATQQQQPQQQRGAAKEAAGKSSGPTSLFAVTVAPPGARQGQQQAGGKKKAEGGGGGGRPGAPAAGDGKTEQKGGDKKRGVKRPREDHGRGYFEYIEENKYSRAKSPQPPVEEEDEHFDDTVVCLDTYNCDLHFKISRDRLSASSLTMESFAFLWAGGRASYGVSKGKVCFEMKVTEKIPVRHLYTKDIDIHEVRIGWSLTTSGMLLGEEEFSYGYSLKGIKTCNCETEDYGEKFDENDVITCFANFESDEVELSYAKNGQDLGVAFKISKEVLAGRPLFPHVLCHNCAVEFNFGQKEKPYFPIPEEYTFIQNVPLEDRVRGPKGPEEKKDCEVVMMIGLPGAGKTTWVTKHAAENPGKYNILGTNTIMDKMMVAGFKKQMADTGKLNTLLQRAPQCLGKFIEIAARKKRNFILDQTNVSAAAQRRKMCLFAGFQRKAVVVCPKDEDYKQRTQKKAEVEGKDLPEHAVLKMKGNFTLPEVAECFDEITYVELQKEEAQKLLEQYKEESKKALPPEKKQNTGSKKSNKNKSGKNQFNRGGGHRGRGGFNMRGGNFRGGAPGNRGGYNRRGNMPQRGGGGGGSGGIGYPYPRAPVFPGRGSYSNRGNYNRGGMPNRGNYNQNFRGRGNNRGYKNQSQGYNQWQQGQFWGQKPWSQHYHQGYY
UniProt P05114: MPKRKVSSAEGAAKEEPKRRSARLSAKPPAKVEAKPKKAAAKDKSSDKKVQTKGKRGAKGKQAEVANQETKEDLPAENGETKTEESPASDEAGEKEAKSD
UniProt P14735, whole entry, looked up: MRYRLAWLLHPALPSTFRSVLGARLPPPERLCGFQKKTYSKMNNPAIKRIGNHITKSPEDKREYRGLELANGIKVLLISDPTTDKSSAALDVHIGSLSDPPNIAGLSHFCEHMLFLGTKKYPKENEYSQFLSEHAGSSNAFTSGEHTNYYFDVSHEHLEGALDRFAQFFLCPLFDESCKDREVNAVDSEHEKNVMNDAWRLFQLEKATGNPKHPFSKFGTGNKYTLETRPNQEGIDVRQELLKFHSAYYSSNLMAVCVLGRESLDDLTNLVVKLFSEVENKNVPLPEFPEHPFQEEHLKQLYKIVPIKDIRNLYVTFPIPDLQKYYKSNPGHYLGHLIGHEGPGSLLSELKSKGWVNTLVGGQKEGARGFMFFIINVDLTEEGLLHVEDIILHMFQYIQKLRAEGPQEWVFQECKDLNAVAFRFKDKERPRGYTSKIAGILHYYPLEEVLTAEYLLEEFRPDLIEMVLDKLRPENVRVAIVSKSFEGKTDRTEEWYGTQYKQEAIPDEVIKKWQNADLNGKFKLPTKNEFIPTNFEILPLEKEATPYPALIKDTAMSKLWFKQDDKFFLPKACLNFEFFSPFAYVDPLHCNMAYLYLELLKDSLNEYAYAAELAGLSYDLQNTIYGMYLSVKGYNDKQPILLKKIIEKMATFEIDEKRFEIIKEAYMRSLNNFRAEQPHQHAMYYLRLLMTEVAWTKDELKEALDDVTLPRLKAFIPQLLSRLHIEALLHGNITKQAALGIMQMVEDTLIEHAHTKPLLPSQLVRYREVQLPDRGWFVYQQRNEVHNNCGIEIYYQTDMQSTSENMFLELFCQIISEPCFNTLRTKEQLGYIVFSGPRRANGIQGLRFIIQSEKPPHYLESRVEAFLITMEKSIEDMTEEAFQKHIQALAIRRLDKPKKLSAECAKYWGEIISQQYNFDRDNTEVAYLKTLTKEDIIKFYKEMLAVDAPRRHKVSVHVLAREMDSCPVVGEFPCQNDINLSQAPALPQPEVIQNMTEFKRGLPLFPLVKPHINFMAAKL
UniProt Q9BX68: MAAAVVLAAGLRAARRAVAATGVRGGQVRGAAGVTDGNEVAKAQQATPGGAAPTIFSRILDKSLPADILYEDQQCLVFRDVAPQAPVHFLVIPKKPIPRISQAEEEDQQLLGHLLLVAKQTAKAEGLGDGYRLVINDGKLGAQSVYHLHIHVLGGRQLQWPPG
UniProt P61604, whole entry, looked up: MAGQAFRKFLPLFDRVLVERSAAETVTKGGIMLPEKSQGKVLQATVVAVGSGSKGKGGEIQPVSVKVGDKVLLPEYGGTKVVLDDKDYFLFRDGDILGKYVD
UniProt P08397: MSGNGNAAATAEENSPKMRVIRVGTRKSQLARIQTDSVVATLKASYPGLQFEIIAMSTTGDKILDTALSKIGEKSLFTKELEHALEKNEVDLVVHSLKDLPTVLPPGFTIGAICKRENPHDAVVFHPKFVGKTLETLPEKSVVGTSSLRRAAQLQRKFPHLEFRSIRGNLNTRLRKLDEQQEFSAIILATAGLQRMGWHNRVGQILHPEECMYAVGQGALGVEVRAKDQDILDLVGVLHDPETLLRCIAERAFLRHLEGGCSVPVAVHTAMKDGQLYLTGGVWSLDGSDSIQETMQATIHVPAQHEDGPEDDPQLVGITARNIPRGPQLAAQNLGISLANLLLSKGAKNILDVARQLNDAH
UniProt Q13151: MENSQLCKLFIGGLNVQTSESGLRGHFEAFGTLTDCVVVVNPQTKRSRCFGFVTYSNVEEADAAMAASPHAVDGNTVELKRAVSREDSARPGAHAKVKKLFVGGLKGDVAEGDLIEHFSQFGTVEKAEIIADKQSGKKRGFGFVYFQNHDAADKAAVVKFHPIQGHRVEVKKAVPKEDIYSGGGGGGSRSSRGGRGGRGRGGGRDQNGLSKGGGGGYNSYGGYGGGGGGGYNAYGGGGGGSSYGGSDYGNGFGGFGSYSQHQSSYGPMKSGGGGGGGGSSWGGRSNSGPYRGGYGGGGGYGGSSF
UniProt P55795: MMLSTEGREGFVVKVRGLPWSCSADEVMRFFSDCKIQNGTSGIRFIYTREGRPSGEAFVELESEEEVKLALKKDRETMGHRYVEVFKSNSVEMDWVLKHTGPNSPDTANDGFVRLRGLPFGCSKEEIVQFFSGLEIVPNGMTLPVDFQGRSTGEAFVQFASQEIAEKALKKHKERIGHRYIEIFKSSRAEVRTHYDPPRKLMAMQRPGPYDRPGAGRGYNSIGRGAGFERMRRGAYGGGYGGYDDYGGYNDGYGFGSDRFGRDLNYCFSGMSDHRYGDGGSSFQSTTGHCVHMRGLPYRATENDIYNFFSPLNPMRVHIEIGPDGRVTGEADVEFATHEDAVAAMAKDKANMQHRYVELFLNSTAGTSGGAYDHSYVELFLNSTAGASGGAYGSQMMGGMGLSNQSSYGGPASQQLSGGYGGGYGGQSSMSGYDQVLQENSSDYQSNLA
UniProt Q01581: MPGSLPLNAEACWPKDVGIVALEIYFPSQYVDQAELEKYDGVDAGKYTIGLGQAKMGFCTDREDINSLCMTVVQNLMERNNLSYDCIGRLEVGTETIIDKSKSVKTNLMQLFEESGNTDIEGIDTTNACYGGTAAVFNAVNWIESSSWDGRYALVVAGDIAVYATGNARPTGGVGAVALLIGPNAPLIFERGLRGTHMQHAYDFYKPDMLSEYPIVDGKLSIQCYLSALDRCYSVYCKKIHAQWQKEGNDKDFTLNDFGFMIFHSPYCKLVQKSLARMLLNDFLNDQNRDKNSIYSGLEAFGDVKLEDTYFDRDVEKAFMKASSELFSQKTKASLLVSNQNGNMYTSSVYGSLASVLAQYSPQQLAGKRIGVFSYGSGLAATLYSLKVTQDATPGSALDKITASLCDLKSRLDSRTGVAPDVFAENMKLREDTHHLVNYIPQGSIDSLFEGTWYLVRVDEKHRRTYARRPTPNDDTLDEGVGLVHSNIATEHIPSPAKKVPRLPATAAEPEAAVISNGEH
UniProt Q5SSJ5: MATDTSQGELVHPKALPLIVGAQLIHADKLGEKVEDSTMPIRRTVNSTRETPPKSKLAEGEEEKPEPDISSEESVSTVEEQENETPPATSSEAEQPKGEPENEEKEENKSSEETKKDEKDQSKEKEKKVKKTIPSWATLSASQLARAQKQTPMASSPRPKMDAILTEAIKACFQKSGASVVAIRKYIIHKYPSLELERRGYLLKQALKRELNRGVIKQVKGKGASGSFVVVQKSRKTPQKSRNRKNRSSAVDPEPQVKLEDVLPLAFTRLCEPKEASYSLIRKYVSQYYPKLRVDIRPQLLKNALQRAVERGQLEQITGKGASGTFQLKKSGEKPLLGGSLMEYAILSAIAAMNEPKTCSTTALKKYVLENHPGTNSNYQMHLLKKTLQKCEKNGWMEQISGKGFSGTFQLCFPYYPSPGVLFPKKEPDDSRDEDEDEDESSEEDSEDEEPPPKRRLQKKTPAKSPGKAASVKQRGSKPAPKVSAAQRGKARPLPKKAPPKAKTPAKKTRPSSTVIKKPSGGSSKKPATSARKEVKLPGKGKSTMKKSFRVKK
UniProt Q8IWL3: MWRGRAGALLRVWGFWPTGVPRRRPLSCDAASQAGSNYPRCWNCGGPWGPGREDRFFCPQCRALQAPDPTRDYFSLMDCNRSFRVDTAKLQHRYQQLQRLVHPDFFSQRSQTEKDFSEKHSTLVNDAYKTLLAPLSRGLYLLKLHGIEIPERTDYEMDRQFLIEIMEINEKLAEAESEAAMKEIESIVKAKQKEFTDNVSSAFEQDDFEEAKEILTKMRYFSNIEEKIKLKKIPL
UniProt P30519: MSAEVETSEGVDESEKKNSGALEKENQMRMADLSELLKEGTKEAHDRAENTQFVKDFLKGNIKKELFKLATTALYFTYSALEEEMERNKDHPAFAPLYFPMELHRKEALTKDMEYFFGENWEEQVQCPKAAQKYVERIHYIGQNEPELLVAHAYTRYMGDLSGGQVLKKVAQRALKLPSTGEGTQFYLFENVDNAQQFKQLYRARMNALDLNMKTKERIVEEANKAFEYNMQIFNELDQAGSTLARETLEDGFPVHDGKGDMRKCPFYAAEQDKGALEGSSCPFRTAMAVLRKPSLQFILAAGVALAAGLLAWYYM

filanesib = compound: CON(C)C(=O)N1N=C(c2cc(F)ccc2F)S[C@@]1(CCCN)c1ccccc1 [filanesib]
In short: as §1

zotarolimus = compound: CO[C@H]1C[C@@H]2CC[C@@H](C)[C@@](O)(O2)C(=O)C(=O)N2CCCC[C@H]2C(=O)O[C@H]([C@H](C)C[C@@H]2CC[C@H](n3cnnn3)[C@H](OC)C2)CC(=O)[C@H](C)/C=C(\C)[C@@H](O)[C@@H](OC)C(=O)[C@H](C)C[C@H](C)/C=C/C=C/C=C/1C [zotarolimus]
In short: as §1

idasanutlin = compound: COc1cc(C(=O)O)ccc1NC(=O)[C@@H]1N[C@@H](CC(C)(C)C)[C@](C#N)(c2ccc(Cl)cc2F)[C@H]1c1cccc(Cl)c1F [idasanutlin]
In short: as §1

alisertib = compound: COc1cc(Nc2ncc3c(n2)-c2ccc(Cl)cc2C(c2c(F)cccc2OC)=NC3)ccc1C(=O)O [alisertib]
In short: as §1

[2] = compound: COc1cc2nc(-c3cc(F)ccc3O)nc(N[C@@H]3CNC[C@H]3C(C)(C)O)c2cc1OC
In short: as §1

gefitinib = compound: COc1cc2ncnc(Nc3ccc(F)c(Cl)c3)c2cc1OCCCN1CCOCC1 [gefitinib]
In short: as §1

[3] = compound: COc1cccc2cc(-c3nc([C@H]4CC[C@H](C(=O)O)CC4)n4ncnc(N)c34)[nH]c12
In short: as §1

lapatinib = compound: CS(=O)(=O)CCNCc1ccc(-c2ccc3ncnc(Nc4ccc(OCc5cccc(F)c5)c(Cl)c4)c3c2)o1 [lapatinib]
In short: as §1

pictilisib = compound: CS(=O)(=O)N1CCN(Cc2cc3nc(-c4cccc5[nH]ncc45)nc(N4CCOCC4)c3s2)CC1 [pictilisib]
In short: as §1

Measured: log2 fold change

HRAS (UniProt P01112)
inactive: [1] 0.008 | filanesib -0.023 | zotarolimus -0.049 | idasanutlin 0.075 | alisertib -0.157 | [2] -0.044 | gefitinib 0.021 | [3] -0.015 | lapatinib 0.076 | pictilisib 0.012

HSPA4 (UniProt P34932)
inactive: [1] 0.026 | filanesib -0.045 | zotarolimus 0.031 | idasanutlin -0.029 | alisertib -0.046 | [2] -0.002 | gefitinib 0.03 | [3] -0.011 | lapatinib -0.009 | pictilisib 0.021

HOOK3 (UniProt Q86VS8)
inactive: [1] -0.074 | filanesib -0.108 | zotarolimus 0.001 | idasanutlin 0.036 | alisertib 0.07 | [2] 0.014 | gefitinib -0.006 | [3] 0.018 | lapatinib 0.032 | pictilisib -0.021

HTATIP2 isoform 3 (UniProt Q9BUP3)
active: zotarolimus 0.364
inactive: [1] -0.003 | filanesib -0.091 | idasanutlin -0.031 | alisertib -0.029 | [2] -0.131 | gefitinib 0.066 | [3] 0.054 | lapatinib -0.015 | pictilisib 0.137

HNRNPAB isoform 3 (UniProt Q99729)
inactive: [1] -0.088 | filanesib 0.175 | zotarolimus -0.045 | idasanutlin 0.092 | alisertib -0.048 | [2] 0.025 | gefitinib -0.012 | [3] -0.023 | lapatinib 0.009 | pictilisib -0.068

HMGCR isoform 3 (UniProt P04035)
inactive: [1] -0.097 | filanesib -0.027 | zotarolimus 0 | idasanutlin 0.188 | alisertib -0.146 | [2] 0.166 | gefitinib 0.01 | [3] -0.045 | lapatinib -0.066 | pictilisib -0.13

HLCS (UniProt P50747)
inactive: [1] -0.012 | filanesib -0.029 | zotarolimus 0.002 | idasanutlin -0.086 | alisertib -0.09 | [2] 0.027 | gefitinib 0.045 | [3] -0.01 | lapatinib 0 | pictilisib 0.098

HIP1 (UniProt O00291)
inactive: [1] 0.022 | filanesib -0.026 | zotarolimus 0.017 | idasanutlin -0.003 | alisertib -0.269 | [2] 0.029 | gefitinib 0.016 | [3] 0.047 | lapatinib 0.059 | pictilisib 0

HSDL2 (UniProt Q6YN16)
inactive: [1] 0.02 | filanesib -0.104 | zotarolimus 0.022 | idasanutlin -0.19 | alisertib -0.024 | [2] -0.03 | gefitinib 0.047 | [3] 0.02 | lapatinib 0.043 | pictilisib 0.01

HMGA1 (UniProt P17096)
inactive: [1] -0.024 | filanesib 0.13 | zotarolimus -0.019 | idasanutlin 0.299 | alisertib -0.022 | [2] -0.146 | gefitinib -0.071 | [3] -0.008 | lapatinib 0.025 | pictilisib -0.27

HNRNPU (UniProt Q00839)
inactive: [1] 0.004 | filanesib 0.267 | zotarolimus -0.024 | idasanutlin 0.172 | alisertib -0.055 | [2] -0.014 | gefitinib -0.045 | [3] -0.064 | lapatinib 0.026 | pictilisib 0.052

HMGN1 (UniProt P05114)
inactive: [1] 0.01 | filanesib 0.044 | zotarolimus -0.034 | idasanutlin 0.026 | alisertib -0.04 | [2] 0.059 | gefitinib -0.07 | [3] 0.026 | lapatinib -0.09 | pictilisib -0.003

IARS (UniProt P41252)
inactive: [1] -0.023 | filanesib 0.417 | zotarolimus 0.081 | idasanutlin 0.111 | alisertib -0.089 | [2] 0 | gefitinib -0.018 | [3] -0.196 | lapatinib 0.131 | pictilisib -0.088

HMGB3 (UniProt O15347)
inactive: [1] 0.037 | filanesib -0.001 | zotarolimus 0.012 | idasanutlin 0.045 | alisertib -0.064 | [2] -0.031 | gefitinib -0.033 | [3] 0 | lapatinib 0.062 | pictilisib -0.044

HM13 (UniProt Q8TCT9)
inactive: [1] -0.082 | filanesib -0.075 | zotarolimus 0.076 | idasanutlin -0.158 | alisertib 0.019 | [2] 0.044 | gefitinib 0.123 | [3] 0.104 | lapatinib 0.069 | pictilisib 0.051

IDE (UniProt P14735)
inactive: [1] 0.015 | filanesib -0.004 | zotarolimus 0.017 | idasanutlin -0.02 | alisertib 0.371 | [2] 0.095 | gefitinib -0.005 | [3] -0.01 | lapatinib -0.027 | pictilisib -0.005

HINT2 (UniProt Q9BX68)
inactive: [1] -0.104 | filanesib -0.005 | zotarolimus 0.068 | idasanutlin 0.062 | alisertib 0.003 | [2] -0.079 | gefitinib 0.065 | [3] 0.057 | lapatinib -0.069 | pictilisib -0.017

HSPE1 (UniProt P61604)
inactive: [1] -0.087 | filanesib -0.089 | zotarolimus -0.03 | idasanutlin -0.009 | alisertib -0.031 | [2] 0.017 | gefitinib 0.038 | [3] 0.065 | lapatinib -0.044 | pictilisib 0.025

HMBS (UniProt P08397)
inactive: [1] 0.088 | filanesib -0.045 | zotarolimus -0.004 | idasanutlin -0.013 | alisertib -0.087 | [2] 0.007 | gefitinib -0.016 | [3] 0.057 | lapatinib -0.016 | pictilisib 0.001

HNRNPA0 (UniProt Q13151)
inactive: [1] -0.045 | filanesib 0.22 | zotarolimus -0.056 | idasanutlin 0.112 | alisertib -0.031 | [2] 0.047 | gefitinib 0.068 | [3] -0.003 | lapatinib 0.075 | pictilisib -0.019

HTATSF1 (UniProt O43719)
inactive: [1] 0.036 | filanesib -0.024 | zotarolimus 0.028 | idasanutlin -0.017 | alisertib 0.108 | [2] 0.068 | gefitinib 0.055 | [3] -0.008 | lapatinib -0.095 | pictilisib 0.082

HNRNPH2 (UniProt P55795)
inactive: [1] 0.003 | filanesib 0.033 | zotarolimus 0.079 | idasanutlin 0.001 | alisertib 0.058 | [2] -0.231 | gefitinib 0.02 | [3] -0.079 | lapatinib 0.057 | pictilisib -0.021

HMGCS1 (UniProt Q01581)
inactive: [1] 0.026 | filanesib -0.034 | zotarolimus -0.016 | idasanutlin 0.047 | alisertib -0.016 | [2] -0.017 | gefitinib 0.007 | [3] 0.018 | lapatinib 0.007 | pictilisib 0.03

HP1BP3 (UniProt Q5SSJ5)
inactive: [1] 0.041 | filanesib 0.145 | zotarolimus -0.003 | idasanutlin 0.095 | alisertib -0.069 | [2] -0.053 | gefitinib 0.154 | [3] -0.024 | lapatinib 0.044 | pictilisib 0.04

HSCB (UniProt Q8IWL3)
inactive: [1] -0.101 | filanesib -0.111 | zotarolimus 0.022 | idasanutlin -0.042 | alisertib 0.064 | [2] -0.031 | gefitinib 0 | [3] -0.064 | lapatinib 0.028 | pictilisib 0.078

HNRNPA3 (UniProt P51991)
inactive: [1] -0.129 | filanesib 0.422 | zotarolimus -0.115 | idasanutlin 0.35 | alisertib -0.083 | [2] -0.005 | gefitinib -0.064 | [3] -0.142 | lapatinib 0.054 | pictilisib -0.408

Reprinted from above (2 entries):
HNRNPH2 (UniProt P55795)
inactive: [1] 0.003 | filanesib 0.033 | zotarolimus 0.079 | idasanutlin 0.001 | alisertib 0.058 | [2] -0.231 | gefitinib 0.02 | [3] -0.079 | lapatinib 0.057 | pictilisib -0.021

HMGCS1 (UniProt Q01581)
inactive: [1] 0.026 | filanesib -0.034 | zotarolimus -0.016 | idasanutlin 0.047 | alisertib -0.016 | [2] -0.017 | gefitinib 0.007 | [3] 0.018 | lapatinib 0.007 | pictilisib 0.03

The listing continues:

HSPA8 (UniProt E9PN89)
inactive: [1] -0.312 | filanesib 0.126 | zotarolimus -0.036 | idasanutlin 0.113 | alisertib 0.042 | [2] 0.191 | gefitinib 0.035 | [3] 0.126 | lapatinib -0.426 | pictilisib 0.134

HMOX2 (UniProt P30519)
active: [1] 0.444
inactive: filanesib 0.085 | zotarolimus 0.027 | idasanutlin 0.148 | alisertib -0.03 | [2] 0.036 | gefitinib 0.006 | [3] -0.041 | lapatinib -0.045 | pictilisib -0.04

HIP1R (UniProt O75146)
inactive: [1] -0.011 | filanesib -0.039 | zotarolimus -0.034 | idasanutlin -0.046 | alisertib 0.114 | [2] 0.027 | gefitinib -0.025 | [3] 0 | lapatinib -0.041 | pictilisib -0.011
